Binding data for one molecule are collected here from paper PMC11914233.

Protein sequences, listed by entry. Tags and fused reporters are not part of them. Lines headed by an entry give the natural chain unless they say otherwise; changes in a name come on top.
UniProt Q9D8T2: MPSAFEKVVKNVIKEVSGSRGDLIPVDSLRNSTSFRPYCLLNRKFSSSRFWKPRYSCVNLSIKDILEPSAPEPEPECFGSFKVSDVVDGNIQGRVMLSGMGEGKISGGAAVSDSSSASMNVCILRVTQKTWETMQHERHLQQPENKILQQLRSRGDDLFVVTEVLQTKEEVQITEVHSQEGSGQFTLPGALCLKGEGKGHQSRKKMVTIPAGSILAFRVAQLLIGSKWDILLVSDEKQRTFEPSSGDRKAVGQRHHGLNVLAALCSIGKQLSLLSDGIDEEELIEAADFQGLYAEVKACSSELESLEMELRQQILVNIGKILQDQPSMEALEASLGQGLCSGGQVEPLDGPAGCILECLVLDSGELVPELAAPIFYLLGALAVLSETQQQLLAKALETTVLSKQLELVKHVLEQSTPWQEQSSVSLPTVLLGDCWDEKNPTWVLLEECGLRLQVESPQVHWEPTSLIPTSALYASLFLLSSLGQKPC

These are yes or no findings as the source states them, for the method shown. In cells and extracts the contact can be indirect. Binding calls can cover weak binding; strength is not graded here. Where a sequence is shown, tags or fusion partners need not be part of it.

This experiment has as its target Flag-tagged gasdermin D N-terminal domain (mouse) (mouse) (UniProt Q9D8T2). The experiment can be described thus: co-IP; lysates of co-transfected cells in EBC buffer (50 mM Tris pH 7.5, 120 mM NaCl, 0.5% NP-40); anti-Flag or anti-HA agarose beads, 4 h at 4 °C; immunoblot. A general note: A western blot detects proteins with antibodies after separation by electrophoresis.

B1: HA-TRAF1 (human) (enzyme, UniProt Q13077 1-416)
chain: MASSSGSSPRPAPDENEFPFGCPPTVCQDPKEPRALCCAGCLSENPRNGEDQICPKCRGEDLQSISPGSRLRTQEKAHPEVAEAGIGCPFAGVGCSFKGSPQSVQEHEVTSQTSHLNLLLGFMKQWKARLGCGLESGPMALEQNLSDLQLQAAVEVAGDLEVDCYRAPCSESQEELALQHFMKEKLLAELEGKLRVFENIVAVLNKEVEASHLALATSIHQSQLDRERILSLEQRVVELQQTLAQKDQALGKLEQSLRLMEEASFDGTFLWKITNVTRRCHESACGRTVSLFSPAFYTAKYGYKLCLRLYLNGDGTGKRTHLSLFIVIMRGEYDALLPWPFRNKVTFMLLDQNNREHAIDAFRPDLSSASFQRPQSETNVASGCPLFFPLSKLQSPKHAYVKDDTMFLKCIVETST
For the molecule B1, the binding result is given as “binds”.
